# In patent US20220257782A1, “PEPTIDE THERAPEUTICS FOR AUTOIMMUNE DISEASES AND INFLAMMATORY DISEASES” (GENESEN CO., LTD., priority 2019, published 2022):
# Protein sequences, listed by entry. Tags and fused reporters are not part of them. Residues count along the entry.
# UniProt Q9EPW9, 28-795: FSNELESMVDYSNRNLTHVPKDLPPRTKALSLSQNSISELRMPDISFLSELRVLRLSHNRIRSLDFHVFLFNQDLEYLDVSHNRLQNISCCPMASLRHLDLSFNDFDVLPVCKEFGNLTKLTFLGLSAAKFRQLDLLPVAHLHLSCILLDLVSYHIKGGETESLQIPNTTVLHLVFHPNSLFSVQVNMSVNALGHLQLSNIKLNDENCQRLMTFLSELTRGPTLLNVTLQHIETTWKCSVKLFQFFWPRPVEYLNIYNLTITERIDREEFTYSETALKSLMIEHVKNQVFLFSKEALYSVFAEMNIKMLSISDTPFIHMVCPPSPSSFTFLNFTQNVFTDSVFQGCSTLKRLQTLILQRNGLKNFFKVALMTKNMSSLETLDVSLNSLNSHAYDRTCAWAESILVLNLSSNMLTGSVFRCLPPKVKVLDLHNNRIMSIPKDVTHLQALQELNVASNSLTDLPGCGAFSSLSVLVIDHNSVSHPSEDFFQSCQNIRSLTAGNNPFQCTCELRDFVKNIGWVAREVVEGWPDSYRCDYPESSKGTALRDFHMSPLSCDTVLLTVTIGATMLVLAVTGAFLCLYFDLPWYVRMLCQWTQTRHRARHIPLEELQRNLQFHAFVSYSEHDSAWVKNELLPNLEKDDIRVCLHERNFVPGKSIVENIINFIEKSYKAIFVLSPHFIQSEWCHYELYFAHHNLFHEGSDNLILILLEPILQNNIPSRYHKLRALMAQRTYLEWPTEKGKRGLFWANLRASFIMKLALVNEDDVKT
# UniProt Q9QUN7, 25-784: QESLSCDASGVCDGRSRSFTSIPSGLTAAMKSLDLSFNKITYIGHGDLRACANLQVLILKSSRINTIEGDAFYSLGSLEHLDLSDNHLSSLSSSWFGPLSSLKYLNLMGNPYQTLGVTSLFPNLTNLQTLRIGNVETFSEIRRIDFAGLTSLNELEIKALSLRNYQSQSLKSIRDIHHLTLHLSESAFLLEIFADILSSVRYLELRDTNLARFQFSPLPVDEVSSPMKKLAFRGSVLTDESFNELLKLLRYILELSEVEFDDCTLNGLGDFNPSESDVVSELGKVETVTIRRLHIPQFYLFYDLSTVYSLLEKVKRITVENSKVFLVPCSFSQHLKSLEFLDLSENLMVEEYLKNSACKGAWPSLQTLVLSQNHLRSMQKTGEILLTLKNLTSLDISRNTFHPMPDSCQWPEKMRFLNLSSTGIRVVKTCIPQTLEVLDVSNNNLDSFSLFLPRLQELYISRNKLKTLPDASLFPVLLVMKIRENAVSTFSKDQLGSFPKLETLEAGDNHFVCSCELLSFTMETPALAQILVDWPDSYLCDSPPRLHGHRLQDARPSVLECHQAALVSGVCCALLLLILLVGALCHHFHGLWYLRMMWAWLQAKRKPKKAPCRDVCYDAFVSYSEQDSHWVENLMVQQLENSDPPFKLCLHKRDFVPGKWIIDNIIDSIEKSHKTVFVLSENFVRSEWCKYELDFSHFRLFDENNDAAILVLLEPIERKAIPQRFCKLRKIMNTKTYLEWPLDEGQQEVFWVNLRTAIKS
# UniProt O00206, 24-839: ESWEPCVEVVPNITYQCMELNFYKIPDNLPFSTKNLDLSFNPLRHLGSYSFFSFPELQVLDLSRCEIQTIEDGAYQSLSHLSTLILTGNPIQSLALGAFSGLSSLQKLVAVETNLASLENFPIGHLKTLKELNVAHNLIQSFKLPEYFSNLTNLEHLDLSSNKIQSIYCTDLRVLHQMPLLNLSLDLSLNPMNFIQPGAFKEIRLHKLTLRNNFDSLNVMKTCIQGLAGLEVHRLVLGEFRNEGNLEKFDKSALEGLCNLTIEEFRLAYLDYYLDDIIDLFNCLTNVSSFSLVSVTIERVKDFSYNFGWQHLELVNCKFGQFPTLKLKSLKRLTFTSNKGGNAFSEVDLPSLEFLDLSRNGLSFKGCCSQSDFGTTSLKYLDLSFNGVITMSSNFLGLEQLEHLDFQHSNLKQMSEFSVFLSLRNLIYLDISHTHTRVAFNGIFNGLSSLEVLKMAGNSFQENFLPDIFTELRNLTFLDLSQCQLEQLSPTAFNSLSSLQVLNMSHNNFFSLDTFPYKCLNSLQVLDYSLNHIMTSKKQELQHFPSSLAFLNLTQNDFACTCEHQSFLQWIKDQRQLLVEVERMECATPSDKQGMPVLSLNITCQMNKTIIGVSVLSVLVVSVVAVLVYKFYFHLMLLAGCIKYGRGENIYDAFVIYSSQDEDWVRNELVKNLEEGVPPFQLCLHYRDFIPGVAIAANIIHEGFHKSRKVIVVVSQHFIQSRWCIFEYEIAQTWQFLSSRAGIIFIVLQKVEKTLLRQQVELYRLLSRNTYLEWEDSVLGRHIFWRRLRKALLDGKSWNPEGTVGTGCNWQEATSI
# Not every detail of the peptide structures is certain; ends, links or a residue may be inferred. Ends that are not written are not given here.
# Columns and labels:
# TLR4 [1] = target: T1, TLR4 (Mus musculus, UniProt Q9QUK6); assay: Cytokine secretion (ELISA) in LPS-stimulated RAW264.7 cells; format: cell-based
# T1 construct: endogenous in cells; host or cells: RAW264.7
# T1 sequence (Q9QUK6 26-835): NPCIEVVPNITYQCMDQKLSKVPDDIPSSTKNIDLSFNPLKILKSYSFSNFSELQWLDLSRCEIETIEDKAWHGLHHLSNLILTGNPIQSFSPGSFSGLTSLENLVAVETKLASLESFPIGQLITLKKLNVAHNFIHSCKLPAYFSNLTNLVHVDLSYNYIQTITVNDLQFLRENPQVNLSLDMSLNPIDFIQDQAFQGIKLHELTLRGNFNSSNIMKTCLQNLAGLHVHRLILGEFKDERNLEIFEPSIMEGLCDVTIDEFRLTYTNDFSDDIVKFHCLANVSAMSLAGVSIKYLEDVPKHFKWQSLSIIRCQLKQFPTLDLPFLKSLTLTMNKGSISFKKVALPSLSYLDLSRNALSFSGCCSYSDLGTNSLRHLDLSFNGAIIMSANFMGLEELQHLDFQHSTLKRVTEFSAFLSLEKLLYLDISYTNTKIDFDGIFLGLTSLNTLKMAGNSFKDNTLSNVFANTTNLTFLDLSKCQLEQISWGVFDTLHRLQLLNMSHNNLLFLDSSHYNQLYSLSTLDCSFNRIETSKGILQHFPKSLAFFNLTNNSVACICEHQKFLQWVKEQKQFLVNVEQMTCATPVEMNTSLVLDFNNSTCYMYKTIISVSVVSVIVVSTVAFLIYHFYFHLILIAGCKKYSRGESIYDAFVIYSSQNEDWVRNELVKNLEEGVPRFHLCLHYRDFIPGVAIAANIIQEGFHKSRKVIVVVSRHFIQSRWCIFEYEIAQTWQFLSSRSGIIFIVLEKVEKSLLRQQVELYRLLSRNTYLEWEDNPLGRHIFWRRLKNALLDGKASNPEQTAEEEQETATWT
# T1 sequence (Q9JHF9 19-160 partner): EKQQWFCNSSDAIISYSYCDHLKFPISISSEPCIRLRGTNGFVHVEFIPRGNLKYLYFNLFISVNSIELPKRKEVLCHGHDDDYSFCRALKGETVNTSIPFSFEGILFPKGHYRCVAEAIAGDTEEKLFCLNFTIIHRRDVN
# Method: THP-1-derived macrophages and RAW264.7 cells were dispensed into 96-well plates (BD Biosciences) at a density of 2×10^5 cells/well and cultured overnight. After 24 hours of treatment, IL-6 secretion was analyzed using Mouse IL-6 ELISA MAX™ Deluxe (BioLegend, San Diego, Calif., USA), and TNF-α production was evaluated using the Mouse TNF alpha ELISA Ready-SET-GO!® kit (eBioscience, San Diego, Calif., USA). Then, the plate was analyzed at each wavelength using a microplate spectrophotometer system (Molecular Devices).
# TLR2/6 = target: T2, TLR2/6 (Mus musculus, UniProt Q9EPW9+Q9QUN7); assay: TNF-α secretion in RAW264.7 cells stimulated by FSL-1; format: cell-based; conditions: FIG. 1F
# T2 construct: the level of TNF-α secretion was measured in RAW264.7 cells after stimulating by other TLR ligands; endogenous in cells; host or cells: RAW264.7
# TLR3 = target: T3, TLR3 (Mus musculus, UniProt Q99MB1); assay: TNF-α secretion in RAW264.7 cells stimulated by Poly(I:C); format: cell-based; conditions: FIG. 1F
# T3 construct: the level of TNF-α secretion was measured in RAW264.7 cells after stimulating by other TLR ligands; endogenous in cells; host or cells: RAW264.7
# T3 sequence (Q99MB1 26-905): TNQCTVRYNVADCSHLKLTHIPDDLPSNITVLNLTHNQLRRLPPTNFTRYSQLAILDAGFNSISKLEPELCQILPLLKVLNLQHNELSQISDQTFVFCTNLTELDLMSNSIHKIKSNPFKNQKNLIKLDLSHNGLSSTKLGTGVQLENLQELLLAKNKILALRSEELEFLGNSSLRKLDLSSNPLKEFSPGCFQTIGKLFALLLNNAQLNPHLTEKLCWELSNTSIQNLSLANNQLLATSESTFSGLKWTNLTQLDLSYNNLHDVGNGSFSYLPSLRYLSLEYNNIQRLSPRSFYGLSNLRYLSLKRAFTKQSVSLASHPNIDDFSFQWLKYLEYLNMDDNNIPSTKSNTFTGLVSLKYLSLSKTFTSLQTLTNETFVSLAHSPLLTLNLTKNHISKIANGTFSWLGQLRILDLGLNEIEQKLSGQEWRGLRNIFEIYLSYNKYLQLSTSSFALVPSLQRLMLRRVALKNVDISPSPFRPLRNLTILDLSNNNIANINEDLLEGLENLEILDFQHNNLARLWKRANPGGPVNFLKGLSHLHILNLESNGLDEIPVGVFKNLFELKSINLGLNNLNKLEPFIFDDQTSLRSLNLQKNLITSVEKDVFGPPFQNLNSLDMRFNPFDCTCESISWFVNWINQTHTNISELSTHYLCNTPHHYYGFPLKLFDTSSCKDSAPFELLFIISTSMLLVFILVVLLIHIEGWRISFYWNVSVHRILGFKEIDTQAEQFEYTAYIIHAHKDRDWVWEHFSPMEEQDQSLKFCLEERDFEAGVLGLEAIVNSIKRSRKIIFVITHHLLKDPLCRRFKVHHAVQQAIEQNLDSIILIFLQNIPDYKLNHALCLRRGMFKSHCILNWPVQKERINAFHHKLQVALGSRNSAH
# TLR7/8 = assay: TNF-α secretion in RAW264.7 cells stimulated by R848; format: cell-based, mouse; conditions: FIG. 1F
# TLR4 signaling = assay: Western blot analysis in LPS-stimulated THP-1-derived macrophages; format: cell-based, human
# TLR4 [2] = target: T4, TLR4 (Homo sapiens, UniProt O00206); assay: Cytokine secretion (ELISA) in LPS-stimulated THP-1-derived macrophages; format: cell-based; conditions: LPS-stimulated THP-1 cells; FIG. 4B
# T4 construct: host or cells: HEK-Blue hTLR4 (HEK293-derived reporter line)
# CIA in male Lewis rats = assay: Collagen-induced arthritis (CIA) rat model; format: in vivo
# [3] = system: MCD diet-induced NASH in C57BL/6J mice; assay: MCD diet-induced NASH mouse model; format: in vivo
# [4] = LPS-stimulated THP-1 cells, FIG. 4A
# [5] = LPS-stimulated THP-1 cells, FIG. 4D
# [6] = during 5-6 weeks of treatment, FIG. 7B
# [7] = prevention or treatment group, FIG. 8C
sequence,measurement,setting,value
RQIKIWFQNRRMKWKKPWCKYQMLQALT [MIP2],IL-6 secretion,TLR4 [1]; FIG. 1D,completely removed IL-6
same,TNF-α secretion,TLR4 [1]; FIG. 1E,significantly reduced TNF-α secretion
same,"inhibition of TNF-α secretion, TLR2/6",TLR2/6,inhibited in a concentration-dependent manner
same,"inhibition of TNF-α secretion, TLR3",TLR3,except TLR3
same,"inhibition of TNF-α secretion, TLR7/8",TLR7/8,inhibited in a concentration-dependent manner
same,inhibitory effect on MAPK,"TLR4 signaling; LPS-stimulated THP-1-derived macrophages, FIG. 4A",exhibited an inhibitory effect on MAPK
same,expression of p-ERK,TLR4 signaling; [4],substantially reduced
same,expression of p-JNK,TLR4 signaling; [4],substantially reduced
same,expression of p-p65,TLR4 signaling; [4],substantially reduced
same,"p38 expression, inhibitory effect compared with RAW264.7",TLR4 signaling; [4],more distinct
same,expression of IRF3 (p-IRF3),TLR4 signaling; [5],inhibited
same,expression of IRF7 (p-IRF7),TLR4 signaling; [5],inhibited
same,secretion of IL-6,TLR4 [2],inhibited in LPS-stimulated cells in an MIP2 concentration-dependent manner
same,secretion of TNF-α,TLR4 [2],inhibited in LPS-stimulated cells in an MIP2 concentration-dependent manner
same,edema and ankle swelling,"CIA in male Lewis rats; after 2-3 weeks of treatment, 20 pmol/g into the knee joint, FIG. 7A",significantly reductions in edema and ankle swelling
same,AI index,CIA in male Lewis rats; [6],became normal
same,ankle diameter,CIA in male Lewis rats; [6],became normal
same,paws (visual monitoring),"CIA in male Lewis rats; during the last 2 weeks of treatment regimen, FIG. 7A",recovered physiologically normal paws
same,"effect on NASH, prevention versus treatment",[3]; MCD diet,more effective for prevention than treatment
same,pathological improvement of steatosis (liver histology),"[3]; MIP2 prevention group or treatment group, i.p. 10 nmol/g for 6 or 4 weeks, FIG. 8A",did not show any significant pathological improvement of steatosis
same,Pparα transcription factor level,"[3]; decreased by choline deficiency, FIG. 8F",restored both transcription factors
same,hepatic cholesterol level,"[3]; i.p. 10 nmol/g, FIG. 8B",significantly decreased
same,hepatic triglycerides level,"[3]; i.p. 10 nmol/g, FIG. 8B",significantly decreased
same,Pparγ transcription factor level,"[3]; increased by choline deficiency, FIG. 8F",restored both transcription factors
same,serum alanine aminotransferase,[3]; [7],no significant changes
same,serum aspartate aminotransferase,[3]; [7],no significant changes
